Results published in PubChem BioAssay AID651660 (Broad Institute, 2012).
Where “and” joins values, the source holds several entries; their conditions need not be identical. Equal values may be shown once. Among all 1,900 compounds or so, about 15 (0.8%) were called active.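 The calls were made as follows: active = every replicate shows at least 50% inhibition; inconclusive = mean inhibition at least 50% but some replicate below; inactive = the rest.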 The list shows a part of the results.

Sequences of proteins named here, by UniProt entry; tags and fusion partners are left off. A change or cut given only in a name is not applied to a line headed by its entry.
UniProt P43351: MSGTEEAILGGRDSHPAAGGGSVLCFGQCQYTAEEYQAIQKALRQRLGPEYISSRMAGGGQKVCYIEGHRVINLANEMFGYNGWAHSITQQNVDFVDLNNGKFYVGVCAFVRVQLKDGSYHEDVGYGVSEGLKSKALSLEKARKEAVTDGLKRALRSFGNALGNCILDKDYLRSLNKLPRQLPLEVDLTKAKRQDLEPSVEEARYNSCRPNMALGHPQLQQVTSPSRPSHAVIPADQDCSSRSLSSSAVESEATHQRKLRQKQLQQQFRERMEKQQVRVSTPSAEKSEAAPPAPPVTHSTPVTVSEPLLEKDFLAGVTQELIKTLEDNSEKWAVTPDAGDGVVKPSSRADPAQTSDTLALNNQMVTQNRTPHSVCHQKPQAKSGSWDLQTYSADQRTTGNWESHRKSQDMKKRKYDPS

Target: DNA repair protein RAD52 homolog (Homo sapiens) (UniProt P43351)
Assay: inhibition of RAD52-mediated strand annealing – biochemical, FRET, single point, primary screen (AID 651660);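 also: 0% = median of neutral control wells and 100% = median of positive control wells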
Details: Recombinant RAD52 ssDNA annealing, FRET fluorescence, 30 min; at 18.7 µM; stronger effect = higher value

inhibition, inactive:
COc1ccc(N2C(=O)C3C(C2=O)C(C(=O)c2ccccc2)N2CCCC32)cc1 (stereo unspecified) -88.5%
COc1cccc(C2CCCN2Cc2nc(CCC(C)C)no2)c1 (stereo unspecified) -14.7%
Nc1nc(Cl)nc2c1ncn2[C@@H]1O[C@H](CO)[C@@H](O)[C@H]1O -0.877%
CCOC(=O)c1oc2cc(O)cc(C)c2c(=O)c1-c1cscn1 5.2%
O=C1N[C@@H](Cc2cnc[nH]2)C(=O)N2CCC[C@@H]12 -0.162%
C[C@@H]1C[C@H]2[C@@H]3CCC4=CC(=O)C=C[C@]4(C)[C@@]3(F)[C@@H](O)C[C@]2(C)[C@@]1(O)C(=O)COP(=O)(O)O -4.25%
Cc1ccc(CSCC(=O)NCCCN2CCOCC2)cc1 5.56%
COc1ccc(C(=O)NC(=O)NC2(C(Cl)(Cl)Cl)OCCO2)cc1 1.4%
CCn1c(=N)c(C(=O)NC)cc2c(=O)n3cccc(C)c3nc21 40.7%
O=[N+]([O-])c1ccc2cn[nH]c2c1 -3.19%
CC(=O)C1=C(Nc2ccc(C)cc2)CC(C)(O)C(C(C)=O)C1c1ccco1 (stereo unspecified) -76.2%
CC(C)C12CN3CC(C(C)C)(CN(C1)C3c1ccccc1)C2O (stereo unspecified) 0.63%
OCCN(CCO)c1nc(N2CCCCC2)c2nc(N(CCO)CCO)nc(N3CCCCC3)c2n1 -284%
COC(=O)[C@H]1[C@H]2C[C@@H]3c4[nH]c5cc(OC)ccc5c4CCN3C[C@H]2C[C@@H](OC(=O)c2ccc(N)cc2)[C@@H]1OC -47.1%
CC(C)CC(NC(=O)CNC(=O)C1O[C@@H]2OC(C)(C)O[C@@H]2[C@H]2OC(C)(C)O[C@@H]12)C(=O)O (stereo partly specified) -7%
Cc1c(Cc2ccccc2)c(=O)oc2c(CN(C)C)c(O)c(Cl)cc12 -33.1%
COc1ccc(-c2cc(=O)oc3cc(OC(C)C(=O)O)ccc23)cc1 (stereo unspecified) -15%
CSCC[C@H](NC(=O)NC1CCCC1)C(=O)O -5.4%
CC(=O)C1=C(NC(=O)c2ccc(C(F)(F)F)cc2)C[C@@H]2[C@H]1C2(C)C 4.2%
COc1ccc(CC(=O)Nc2cccc(C(=O)Nc3ccccc3C(=O)O)c2)cc1OC -17%
CC(C)(C)N1NC2(CCCCC2)NC1=S 9.14%
O=C(O)C1CSC(c2ccco2)N1 (stereo unspecified) -11.6%
CCN1C(=O)C(CC(=O)Nc2ccc(F)cc2)N(Cc2ccc3c(c2)OCO3)C1=S (stereo unspecified) 8.77%
COc1ccccc1/C=C/C(=O)c1c2c(c(C)[nH]c1=O)CCCC2 -7.85%
CN(C)CCOc1ccc(Cl)cc1C(C)(C)C 7.97%
COc1cccc(/C=C/C(=O)c2c(O)cc(C)oc2=O)c1O -38.5%
CC(=O)c1c(C)[nH]c(C(=O)OCc2ccccc2)c1C 1.84%
CCc1cc(=O)oc2cc(C)c(CN3CCCC(C)C3)c(O)c12 (stereo unspecified) -71.9%
COC(=O)CCC(=O)CN -5.45%
COc1ccc2cc(-c3nc4ccccc4n3C)c(=O)oc2c1 -12%
CC1(C)NC(C(=O)O)Cc2c1[nH]c1ccccc21 (stereo unspecified) -5.7%
O=C(Nc1ccccc1)OCC1CCCN2CCCCC12 (stereo unspecified) 2.17%
CC(C)=CCC/C(C)=C/CC/C(C)=N/O -2.54%
COc1cc(C2C(C(C)=O)=C(O)C(=O)N2c2ccc(C)cc2)ccc1O (stereo unspecified) -13.3%
CC(C)NC(=O)C1(c2ccccc2)CCOCC1 -5.21%
CC(C)OC(=O)C(C)(C)Oc1ccc(C(=O)c2ccc(Cl)cc2)cc1 -5.56%
COC(=O)C1[C@H]2C(=O)N(Cc3cccs3)C[C@]23C=C[C@H]1O3 (stereo partly specified) 4.54%
CN1CCCN(C(c2ccccc2)c2ccc(Cl)cc2)CC1 (stereo unspecified) 20.1%
Nc1ccc(N)c(C(=O)O)c1 5.84%
CCOc1ccc2nc(S(N)(=O)=O)sc2c1 -9.33%
O=C(O)c1ccccc1O -0.256%
Cc1cc(/C=N/O)c(C)n1-c1ccc(Br)cc1 -14.7%
CCNCCC(CCC(C)C)c1ccc2c(c1)OCO2 (stereo unspecified) 5.63%
C/C(NC(=O)c1cccs1)=C1\C(=O)C[C@@H]2[C@H]1C2(C)C 1.79%
O=P(c1ccccc1)(c1ccccc1)c1nc(-c2ccc(Cl)cc2)oc1N1CCOCC1 7.3%
N#C/C(=C\c1ccc(O)c(O)c1)C(=O)NCCCc1ccccc1 -77.9%
CCOC(=O)C1CCCN(Cc2nc(Cc3cccc(F)c3)no2)C1 (stereo unspecified) -0.447%
COc1ccc(-c2[nH]ncc2CN(CCO)Cc2cccs2)c(F)c1 -3.67%
CCOc1ccc(C(=O)NCC2(c3ccccc3)CCOCC2)cc1 -5.73%
O=C(Nc1ccc(Oc2c(F)c(F)c(F)c(F)c2F)cc1)OC1CCN2Cc3ccccc3N=C12 (stereo unspecified) -1.63%
C/C=C(/C(=C/C)c1ccc(O)cc1)c1ccc(O)cc1 4.54%
COc1ccc(-c2cc3cc(OC)c(OC)cc3c(C)n2)cc1 -3.4%
Cc1ncc([N+](=O)[O-])n1CC(C)O (stereo unspecified) 7.1%
COc1ccc2cc([C@H](C)C(=O)O)ccc2c1 -8.61%
O=[N+]([O-])c1cc(/C=N/n2cnnc2)ccc1N1CCCC1 -0.23%
CCN(CC)c1ccc(C2=NNC(=O)CC2C)cc1[N+](=O)[O-] (stereo unspecified) -0.17%
C[C@@H]1C[C@H](Nc2ccccc2)c2ccccc2N1C(=O)c1cccnc1 -1.25%
CC1(C)S[C@@H]2[C@H](NC(=O)[C@H](N)c3ccccc3)C(=O)N2[C@H]1C(=O)O -8.47%
Cc1cc(O)c2/c(=N\N)c(-c3csc(C)n3)coc2c1 -11.3%
O=c1n(CCCN2CCN(c3cccc(Cl)c3)CC2)nc2ccccn12 -1.23%
CC12CCC(C(=O)NNc3ccccc3)(C(=O)C1=O)C2(C)C (stereo unspecified) -4.67%
CC(=O)NCCCC(=O)NC(CCC(=O)OCc1ccccc1)C(=O)OCc1ccccc1 (stereo unspecified) -10.8%
OC12CCCCC1C(c1ccc3c(c1)OCO3)N(Cc1cccc(F)c1)CC2 (stereo unspecified) -0.832%
CC(=O)O[C@H]1CC[C@H]2[C@@H]3CCc4cc(O)ccc4[C@H]3CC[C@]12C 6.46%
CN1[C@@H]2CC(OC(=O)[C@H](CO)c3ccccc3)C[C@H]1[C@@H]1O[C@@H]12 (stereo partly specified) 1.95% and -1.71%
O=C(NCc1ccc(N2CCCC2=O)cc1)c1ccc(F)cc1 -3.3%
O=c1cc(-c2ccc3c(c2)OCCO3)oc2ccc(Cl)cc12 2.35%
NC(=O)c1cnccn1 4.37%
COc1cc(C(=O)Nc2cccc(-c3nnc(-c4ccco4)o3)c2)ccc1OC(C)=O -1.56%
CCNC(=S)Nc1ccc(OC(F)(F)F)cc1 -1.84%
CCCn1c(=O)c2[nH]c(C3CCCC3)nc2n(CCC)c1=O 7.88%
CCOC(=O)n1c(=O)oc2ccccc21 -1.8%
O=C(CCNNC(=O)c1ccncc1)NCc1ccccc1 -0.055%
Cc1nc2ccccn2c(=O)c1CCN1CCC(C(=O)c2ccc(F)cc2)CC1 -13%
Oc1[nH]c2ccccc2c1C1=NCCCC1 -32.8%
COc1ccc(-c2noc(CCc3ccccc3)n2)cc1 -6.01%
C=C(C)[C@@H]1CC=C(CN2CCC(N3CCC(C(=O)N4CCCC4)CC3)CC2)CC1 -15.3%
COc1cc2c(cc1NCc1ccc3c(c1)OCO3)oc1ccccc12 -8.67%
CC(C)C[C@H](NC(=O)[C@@H]1Cc2ccccc2CN1C(=O)OC(C)(C)C)C(=O)NCC1CCC(C(=O)O)CC1 (stereo partly specified) 7.04%
COC(=O)c1ccc(=O)n(Cc2ccco2)c1 -5.57%
O=C(Nc1cccc(Oc2c(F)c(F)c(F)c(F)c2F)c1)N1C[C@@H]2C[C@@H](C1)c1cccc(=O)n1C2 3.99%
Cn1c(=O)[nH]c(=O)c2c1nc(Br)n2CCCO -8.48%
N/C(=N\OC(=O)c1ccc(Br)o1)c1ccccn1 -4.88%
COc1cccc(OC2OC3COC(C)(C)OC3C(O)C2NC(C)=O)c1 (stereo unspecified) 0.119%
Nc1ccc(S(=O)(=O)NC(=O)c2ccccc2)cc1 5.18%
C=C(CC)C(=O)c1ccc(OCC(=O)O)c(Cl)c1Cl -11.1%
CCC(C)NCCOc1ccc(C(C)(C)c2ccccc2)cc1 (stereo unspecified) 32%
O=C(NCCc1ccccc1)C1CCN(C2CCN(Cc3ccco3)CC2)CC1 -15.9%
COC(=O)c1ccccc1NC(=O)NCc1ccccc1 -1.68%
CCCCN1C[C@H](O)[C@@H](O)[C@H](O)[C@H]1CO 9.71%
c1ccc2c(c1)CCCC2C1=NCCN1 (stereo unspecified) -4.07%
C/C=C/Cn1c(SC)nc2c1c(=O)[nH]c(=O)n2C 0.316%
CC(C)C(=O)Nc1cccnc1 -3.83%
Clc1ccc(CCNc2ncnc3nc[nH]c23)cc1 1.95%
CCOc1ccc(C(=O)C(C)=O)c(OCC)c1 -0.868%
COc1ccc(CN(CCC(c2ccc(F)cc2)C2CCOC(C)(C)C2)C(=O)c2ccco2)cc1 (stereo unspecified) 25.2%

Sorted by count of non-hydrogen atoms (smallest number first): some entries from above
inhibition, inactive:
N/C(=N\OC(=O)c1ccc(Br)o1)c1ccccn1 -4.88%
Cc1ccc(CSCC(=O)NCCCN2CCOCC2)cc1 5.56%
O=P(c1ccccc1)(c1ccccc1)c1nc(-c2ccc(Cl)cc2)oc1N1CCOCC1 7.3%
COC(=O)[C@H]1[C@H]2C[C@@H]3c4[nH]c5cc(OC)ccc5c4CCN3C[C@H]2C[C@@H](OC(=O)c2ccc(N)cc2)[C@@H]1OC -47.1%
